Our source for the binding values is patent US20240299519A1.

The target in the experiment is T1, CD99 antigen (Origene, Sku #TP304058) (UniProt P14209).
T1 sequence (looked up): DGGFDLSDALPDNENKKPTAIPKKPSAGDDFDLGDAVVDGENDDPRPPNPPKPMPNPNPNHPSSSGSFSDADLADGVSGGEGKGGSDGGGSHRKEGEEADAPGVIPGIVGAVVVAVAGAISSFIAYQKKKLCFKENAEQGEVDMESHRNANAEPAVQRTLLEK
Kind of experiment: hybridoma screening, assay not given.

No constants are given. Whether binding was seen depends on the method and setting. Some entries that bind do so weakly or less than the wild type.

B1: antibody of hybridoma clone 4C5E2 (antibody, V domains shown)
VH: EVQLEESGGGLVQPKGSLKLSCAASGFTFNTYAMYWVCQAPGKGLKWVARIRSKVNNYATYYADSVKDRFTISRDDSQNMLFLHMNNLKTEDTAIYFCVRDPMDYWGQGISVTVSS
VL: DIVMTQAAPSVPVTPGESVSISCGSSKSLLHSNGNTYLYWFLQRPGQSPQLLIYRVSNLASGVPDRFSGSGSGTAFTLRISRVEAEDVGVYYCMQHLEYPYTFGGGTRLEIK
As for B1, the binding entry is recorded as “binds”.

B2: antibody of hybridoma clone 4C5H10 (antibody, V domains shown)
VH: EVQLVESGGGLVQPKGSLKLSCAASGFTFNTYAMYWVCQAPGKGLKWVARIRSKVNNYATYYADSVKDRFTISRDDSQNMLFLHMNNLKTEDTAIYFCVRDPMDYWGQGISVTVSS
VL: DIVMTQAAPSVPVTPGESVSISCGSSKSLLHSNGNTYLYWFLQRPGQSPQLLIYRVSNLASGVPDRFSGSGSGTAFTLRISRVEAEDVGVYYCMQHLEYPYTFGGGTRLEIK
For B2, the binding result is “binds”.
